Source: PubChem BioAssay AID686938 (Drosophila RNAi Screening Center, 2013)

Aim: 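Knock-downs reducing store-operated calcium influx in Drosophila cells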 (primary screen)
Cells: Drosophila S2R+ cells
Reagent: long dsRNA against Drosophila genes, about 0.25 µg dsRNA per well, roughly 10,000 cells
Time to read-out: 5 days of knock-down before the calcium assay
Challenge: thapsigargin (SERCA pump blocker) to empty calcium stores; entry signal taken 4 min after adding it
Read-out: 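Per-well fluo-4 fluorescence in two replicates, unnormalised, measured in resting cells and 4 min after store depletion by the SERCA blocker thapsigargin; ratio of the two present in few wells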
Reading the numbers: calcium entry signal: higher = stronger calcium signal after store depletion; resting calcium signal: higher = higher resting calcium signal
Units: calcium entry signal in fluorescence units; resting calcium signal in fluorescence units
Rule for the call: 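Hit if the duplicate-averaged plate z-score for entry over resting signal is under −3; wells with weak total dye signal (Fmax z < −2) or more than 5 off-targets removed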
Meaning of the calls: active = strongly reduced calcium entry; inactive = no strong reduction
The deposit covers about 23,000 reagents; below is a random part of those with a known target gene and a result. Over the whole deposit, 75 (0.33%) got an active call. 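Raw plate signals without normalisation; calls rest on plate z-scores that were not deposited; ratio present for only 364 wells.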 Reagents against one gene are numbered here. Not given: the dose of the treatment.

What did the screen give for clt (GeneID 117300)?
calcium entry signal, replicate 1: 4.11e7; calcium entry signal, replicate 2: 3.95e7; resting calcium signal, replicate 1: 2.19e7; resting calcium signal, replicate 2: 1.77e7; activity call: inactive

Which result is listed for Lamtor3 (GeneID 35055)?
calcium entry signal, replicate 1: 5.15e7; calcium entry signal, replicate 2: 3.33e7; resting calcium signal, replicate 1: 2.35e7; resting calcium signal, replicate 2: 1.64e7; activity call: inactive

How did the screen score Obp58b (GeneID 37607)?
calcium entry signal, replicate 1: 3.92e7; calcium entry signal, replicate 2: 3.81e7; resting calcium signal, replicate 1: 2.01e7; resting calcium signal, replicate 2: 1.85e7; activity call: inactive

How did the screen score CG13994 (GeneID 33853)?
calcium entry signal, replicate 1: 3.77e7; calcium entry signal, replicate 2: 3.30e7; resting calcium signal, replicate 1: 1.85e7; resting calcium signal, replicate 2: 1.55e7; activity call: inactive

With CG4338 (GeneID 41849), how do the results read?
calcium entry signal, replicate 1: 3.85e7; calcium entry signal, replicate 2: 5.11e7; resting calcium signal, replicate 1: 1.67e7; resting calcium signal, replicate 2: 2.25e7; activity call: inactive

Which result is listed for CG9945 (GeneID 37329)?
calcium entry signal, replicate 1: 2.40e7; calcium entry signal, replicate 2: 3.21e7; resting calcium signal, replicate 1: 1.24e7; resting calcium signal, replicate 2: 1.47e7; activity call: inactive

With CG10559 (GeneID 43063), how do the results read?
calcium entry signal, replicate 1: 2.37e7; calcium entry signal, replicate 2: 6.18e7; resting calcium signal, replicate 1: 1.44e7; resting calcium signal, replicate 2: 2.91e7; activity call: inactive

Which result is listed for Ntmt (GeneID 36022)?
calcium entry signal, replicate 1: 3.61e7; calcium entry signal, replicate 2: 3.59e7; resting calcium signal, replicate 1: 1.80e7; resting calcium signal, replicate 2: 1.62e7; activity call: inactive

What did the screen give for CG3339 (GeneID 43295) #1?
calcium entry signal, replicate 1: 3.57e7; calcium entry signal, replicate 2: 5.27e7; resting calcium signal, replicate 1: 1.76e7; resting calcium signal, replicate 2: 2.38e7; activity call: inactive

What is on record for CG3339 (GeneID 43295) #2?
calcium entry signal, replicate 1: 3.61e7; calcium entry signal, replicate 2: 5.43e7; resting calcium signal, replicate 1: 1.77e7; resting calcium signal, replicate 2: 2.20e7; activity call: inactive

What did the screen give for Ran-like (GeneID 39666)?
calcium entry signal, replicate 1: 3.78e7; calcium entry signal, replicate 2: 5.08e7; resting calcium signal, replicate 1: 1.86e7; resting calcium signal, replicate 2: 3.29e7; activity call: inactive

What is on record for CG6550 (GeneID 36954)?
calcium entry signal, replicate 1: 2.44e7; calcium entry signal, replicate 2: 2.45e7; resting calcium signal, replicate 1: 1.06e7; resting calcium signal, replicate 2: 1.15e7; activity call: inactive

For CG34305 (GeneID 5740825), how do the results read?
calcium entry signal, replicate 1: 3.46e7; calcium entry signal, replicate 2: 3.49e7; resting calcium signal, replicate 1: 1.70e7; resting calcium signal, replicate 2: 1.59e7; activity call: inactive

How did the screen score Arl6IP1 (GeneID 42027)?
calcium entry signal, replicate 1: 2.29e7; calcium entry signal, replicate 2: 5.35e7; resting calcium signal, replicate 1: 1.26e7; resting calcium signal, replicate 2: 6.35e7; activity call: inactive

With Tsp39D (GeneID 35405), how do the results read?
calcium entry signal, replicate 1: 4.00e7; calcium entry signal, replicate 2: 5.46e7; resting calcium signal, replicate 1: 1.82e7; resting calcium signal, replicate 2: 2.36e7; activity call: inactive

For Itpr (GeneID 40664), how do the results read?
calcium entry signal, replicate 1: 3.59e7; calcium entry signal, replicate 2: 2.98e7; resting calcium signal, replicate 1: 1.74e7; resting calcium signal, replicate 2: 1.42e7; activity call: inactive

For odd (GeneID 33583) #1, how do the results read?
calcium entry signal, replicate 1: 2.44e7; calcium entry signal, replicate 2: 3.85e7; resting calcium signal, replicate 1: 1.50e7; resting calcium signal, replicate 2: 1.67e7; activity call: inactive

What did the screen give for odd (GeneID 33583) #2?
calcium entry signal, replicate 1: 3.43e7; calcium entry signal, replicate 2: 3.73e7; resting calcium signal, replicate 1: 1.74e7; resting calcium signal, replicate 2: 1.75e7; activity call: inactive

For CG12341 (GeneID 36137), how do the results read?
calcium entry signal, replicate 1: 4.43e7; calcium entry signal, replicate 2: 1.91e7; resting calcium signal, replicate 1: 1.96e7; resting calcium signal, replicate 2: 1.60e7; activity call: inactive

What is on record for CG2852 (GeneID 37591)?
calcium entry signal, replicate 1: 3.52e7; calcium entry signal, replicate 2: 4.93e7; resting calcium signal, replicate 1: 1.89e7; resting calcium signal, replicate 2: 2.11e7; activity call: inactive

How did the screen score Shab (GeneID 38352) #1?
calcium entry signal, replicate 1: 3.85e7; calcium entry signal, replicate 2: 3.82e7; resting calcium signal, replicate 1: 2.38e7; resting calcium signal, replicate 2: 1.75e7; activity call: inactive

With Shab (GeneID 38352) #2, how do the results read?
calcium entry signal, replicate 1: 4.61e7; calcium entry signal, replicate 2: 3.86e7; resting calcium signal, replicate 1: 2.10e7; resting calcium signal, replicate 2: 1.75e7; activity call: inactive

With Shab (GeneID 38352) #3, what does the deposit list?
calcium entry signal, replicate 1: 4.04e7; calcium entry signal, replicate 2: 3.47e7; resting calcium signal, replicate 1: 1.89e7; resting calcium signal, replicate 2: 1.83e7; activity call: inactive
